Source: patent US20230235004A1
Substitutions are numbered along the chain they refer to. These are yes or no findings as the source states them, for the method shown. Some results given as binding are weak or reduced against the parent protein; the word gives no strength.

Sequences of proteins named here, by UniProt entry; tags and fusion partners are left off. A change or cut given only in a name is not applied to a line headed by its entry. Residues count along the entry.
UniProt Q13477: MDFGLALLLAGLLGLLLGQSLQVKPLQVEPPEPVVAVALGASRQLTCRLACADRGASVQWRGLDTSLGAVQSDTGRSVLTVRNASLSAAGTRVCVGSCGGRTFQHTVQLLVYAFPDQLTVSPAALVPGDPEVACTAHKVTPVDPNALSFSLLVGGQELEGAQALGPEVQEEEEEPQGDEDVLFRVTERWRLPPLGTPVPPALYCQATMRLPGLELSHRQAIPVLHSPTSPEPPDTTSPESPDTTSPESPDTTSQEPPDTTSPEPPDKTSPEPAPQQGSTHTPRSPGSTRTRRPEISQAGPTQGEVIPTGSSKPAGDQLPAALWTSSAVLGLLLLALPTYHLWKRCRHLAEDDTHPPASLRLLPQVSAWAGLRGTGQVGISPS
human MAdCAM expressed on cells: residues 19-382 of Q13477
human MAdCAM protein: residues 19-317 of Q13477
UniProt Q61826: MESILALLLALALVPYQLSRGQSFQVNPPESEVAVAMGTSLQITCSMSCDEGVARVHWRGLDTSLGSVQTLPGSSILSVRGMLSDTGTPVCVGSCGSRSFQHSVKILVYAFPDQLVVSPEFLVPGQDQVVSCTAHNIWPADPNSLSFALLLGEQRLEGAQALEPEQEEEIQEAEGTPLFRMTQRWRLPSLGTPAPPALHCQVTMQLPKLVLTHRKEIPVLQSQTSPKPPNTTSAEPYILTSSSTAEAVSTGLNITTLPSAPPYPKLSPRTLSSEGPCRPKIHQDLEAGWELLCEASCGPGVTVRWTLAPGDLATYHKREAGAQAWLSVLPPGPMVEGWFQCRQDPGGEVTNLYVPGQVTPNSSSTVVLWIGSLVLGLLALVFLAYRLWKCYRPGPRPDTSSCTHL
mouse MAdCAM expressed on cells: residues 22-405 of Q61826
recombinant mouse MAdCAM-1: residues 22-364 of Q61826

B1: MAdCAM Antibody Table 2 clone 5 (antibody, V domains shown)
VH: EVQLLESGGGLVQPGGSLRLSCAASGFTFSSYWMHWVRQAPGKGLEWVSSISPGGSNIDYADSVKGRFTISRDNSKNTLYLQMNSLRAEDTAVYYCAREVQLSHYDYWGQGTLVTVSS
VL: DIQMTQSPSSLSASVGDRVTITCRASQGISNSLAWYQQKPGKAPKLLIYGASSLQSGVPSRFSGSGSGTDFTLTISSLQPEDFATYYCQQANSFPFTFGQGTKVEIK
B2: MAdCAM antibody Table 1 clone 7 (scFv)
scFv: QVQLVQSGAEVKKPGASVKVSCKASGYTFTGYHIHWVRQAPGQGLEWMGIINPSGGSTIYAQKFQGRVTMTRDTSTSTVYMELSSLRSEDTAVYYCAKDWSSWYLGPFDYWGQGTLVTVSSGGGGSGGGGSGGGGSGGGGSDIQMTQSPSSLSASVGDRVTITCRASQNISSSLNWYQQKPGKAPKLLIYAASSLQSGVPSRFSGSGSGTDFTLTISSLQPEDFATYYCQQSYTTPYTFGQGTKVEIK
B3: MAdCAM Antibody Table 2 clone 4 (antibody, V domains shown)
VH: QVQLVQSGAEVKKPGASVKVSCKASGGTFSSYAISWVRQAPGQGLEWMGSINPSGDTTSYAQKFQGRVTMTRDTSTSTVYMELSSLRSEDTAVYYCAKDKAQWLVGYFDYWGQGTLVTVSS
VL: B1 VL with R24Q, G28D, A34N, G50A, A91S, N92Y, F94S, P95V, F96I
B4: MAdCAM antibody Table 1 clone 9 (scFv)
scFv: EVQLLESGGGLVQPGGSLRLSCAASGFTFSDYYMNWVRQAPGKGLEWVSVIGESGGSTYYADSVKGRFTISRDNSKNTLYLQMNSLRAEDTAVYYCAADPVSRWPKHGGGDYWGQGTLVTVSSGGGGSGGGGSGGGGSGGGGSDIQMTQSPSSLSASVGDRVTITCRASQGISSSLAWYQQKPGKAPKLLIYAASTLQSGVPSRFSGSGSGTDFTLTISSLQPEDFATYYCQQSYSTPWTFGQGTKVEIK
B5: MAdCAM Antibody Table 2 clone 6 (antibody, V domains shown)
VH: EVQLLESGGGLVQPGGSLRLSCAASGFTFNNYAFHWVRQAPGKGLEWVSRINSYGTSTTYADSVKGRFTISRDNSKNTLYLQMNSLRAEDTAVYYCAREGPVAGYWYFDLWGQGTLVTVSS
VL: B1 VL with G28I, S30G, N31T, S32N, A91S, N92Y, S93R, F94L
B6: MAdCAM antibody Table 1 clone 60 (scFv)
scFv: EVQLLESGGGLVQPGGSLRLSCAASGFTFDDYTMHWVRQAPGKGLEWVSDISGSGGSTYYADSVKGRFTISRDNSKNTLYLQMNSLRAEDTAVYYCAKDVVVAGTPLHFDYWGQGTLVTVSSGGGGSGGGGSGGGGSGGGGSDIQMTQSPSSLSASVGDRVTITCQASQDISNYLNWYQQKPGKAPKLLIYAASYLQSGVPSRFSGSGSGTDFTLTISSLQPEDFATYYCQQAHNYPITFGQGTRLEIK
B7: MAdCAM Antibody Table 2 clone 2 (antibody, V domains shown)
VH: QVQLVQSGAEVKKPGASVKVSCKASGYPFIGYYLHWVRQAPGQGLEWMGIINPSGGSTSYAQKFQGRVTMTRDTSTSTVYMELSSLRSEDTAVYYCAREGRLSYGMDAWGQGTLVTVSS
VL: B1 VL with G28S, N31S, S32Y, S53T, Q55E, A91T, N92W, S93G, F94P, V104L
B8: MAdCAM Antibody Table 2 clone 35 (antibody, V domains shown)
VH: QVQLVQSGAEVKKPGASVKVSCKASGYTFTGYYIHWVRQAPGQGLEWMGWMNPNSGNTGYAQKFQGRVTMTRDTSTSTVYMELSSLRSEDTAVYYCARDPGFLGYSSGGSSYDGWFDPWGQGTLVTVSS
VL: DIQMTQSPSSLSASVGDRVTITCRASQSISSYLHWYQQKPGKAPKLLIYAASSLQSGVPSRFSGSGSGTDFTLTISSLQPEDFATYYCQQSYTAPYTFGQGTKLEIK
B9: MAdCAM Antibody Table 2 clone 3 (antibody, V domains shown)
VH: B7 VH with Y32Q
VL: B8 VL with H34A, A50G, S53T, Q55E, S91T, Y92W, T93G, A94P, Y96F
B10: MAdCAM Antibody Table 2 clone 33 (antibody, V domains shown)
VH: QVQLVQSGAEVKKPGASVKVSCKASGYTLTTWYMYWVRQAPGQGLEWMGWINPNRGATNYAQKFQGRVTMTRDTSTSTVYMELSSLRSEDTAVYYCAKGDLWGAMDVWGQGTTVTVSS
VL: B1 VL with Q27D, G28N, S30G, N31S, S32W, G50A, A91G, N92Y, F94T, F96P
B11: MAdCAM Antibody Table 2 clone 32 (antibody, V domains shown)
VH: B10 VH with T113L
VL: B1 VL with Q27D, G28N, S30G, N31S, S32W, G50A, A91G, N92Y, F94T, F96P
B12: MAdCAM Antibody Table 2 clone 40 (antibody, V domains shown)
VH: B10 VH with T113L
VL: B1 VL with Q27D, G28N, S30G, N31S, S32W, G50A, A91G, N92Y, F94T, F96P
B13: MAdCAM antibody Table 1 clone 25 (scFv)
scFv: QVQLVQSGAEVKKPGASVKVSCKASGYTLTTWYMYWVRQAPGQGLEWMGWINPNRGATNYAQKFQGRVTMTRDTSTSTVYMELSSLRSEDTAVYYCAKGDLWGAMDVWGQGTLVTVSSGGGGSGGGGSGGGGSGGGGSDIQMTQSPSSLSASVGDRVTITCRASDNIGSWLAWYQQKPGKAPKLLIYAASSLQSGVPSRFSGSGSGTDFTLTISSLQPEDFATYYCQQGYSTPPTFGQGTKVEIK
B14: MAdCAM antibody Table 1 clone 30 (scFv)
scFv: B13 scFv
B15: MAdCAM antibody Table 1 clone 8 (scFv)
scFv: EVQLLESGGGLVQPGGSLRLSCAASGFMFGDYAMHWVRQAPGKGLEWVSAISGSGGSTYYADSVKGRFTISRDNSKNTLYLQMNSLRAEDTAVYYCAKDLVVAGIWYFDLWGRGTLVTVSSGGGGSGGGGSGGGGSGGGGSDIQMTQSPSSLSASVGDRVTITCRASQGISNNLNWYQQKPGKAPKLLIYDASSLESGVPSRFSGSGSGTDFTLTISSLQPEDFATYYCQQTHSFPSTFGQGTKLEIK

target: human MAdCAM protein (human) (UniProt Q13477); test: Octet

binding, binds:
B1, B2, B3, B4, B5, B6

target: recombinant mouse MAdCAM-1 (mouse) (UniProt Q61826); test: Octet

binding, binds:
B1, B2, B3, B4

target: human MAdCAM expressed on cells (human) (UniProt Q13477); test: cell binding

binding, binds:
B7, B1, B8, B9, B2, B3, B4, B5, B10, B11, B12, B6, B13, B14, B15

target: mouse MAdCAM expressed on cells (mouse) (UniProt Q61826); test: cell binding

binding, binds:
B7, B1, B9, B2, B3, B4, B6
